This is an account of results in article doi:10.1101/137844.

For the assay, the target named is T1, RCD1 GFP:WWE-linker fusion protein (from Arabidopsis) (Arabidopsis) (UniProt Q8RY59).
T1 sequence (chain, WWE-linker region found phosphorylated (Fig. S3; Table S5)): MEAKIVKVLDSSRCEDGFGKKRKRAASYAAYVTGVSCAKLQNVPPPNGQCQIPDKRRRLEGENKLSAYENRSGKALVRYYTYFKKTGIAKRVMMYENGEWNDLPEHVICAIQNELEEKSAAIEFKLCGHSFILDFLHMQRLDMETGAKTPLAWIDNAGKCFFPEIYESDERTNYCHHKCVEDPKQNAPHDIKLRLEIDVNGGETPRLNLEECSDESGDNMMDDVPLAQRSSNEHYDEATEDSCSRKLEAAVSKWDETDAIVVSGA
The assay can be described thus: affinity purification with mass spectrometry.

Results are given in words; binding and its absence hold for the method and conditions named. In cells and extracts the contact can be indirect. These calls come from enrichment with a bait or labelling near it, and not all partners need be listed. Where a sequence is shown, tags or fusion partners need not be part of it.

On to MUT9-like kinase 2 (enzyme), for which the binding entry is “binds”.

On to MUT9-like kinase 4 (enzyme), for which the binding entry is given as “binds”.

Turning to MUT9-like kinase 3 (enzyme), the binding entry is reported as “binds”.

As for MUT9-like kinase 1 (enzyme), the binding result is recorded as “binds”.

B1: SRO1 (endogenous, Arabidopsis) (protein, UniProt O82289 1-568)
chain: MEAKIVKVSDSSYKDGLGKKRKHPGNYTPYDSGRSYAKLQWVLSPNSSTQKLEKRRNLDGENKVIVSENHVEKSLVRYFSYYKKTGVPKRVMFHENGEWIDLPDHILCDIRNDLEAKRATIEFNWCGRHFLLDFLHMYRLDLETGVKTQLAWIDIAGKCFFPETFDTLERDGCHHIRGEDPEQHDQREIKLHIEIDVNSGELPRLNLNVVTDESGDNMDDFQAVQRSSNGPNDEASEDSCSRELDDAVEKWDKTETDRFSGVKPAEEELDKDAVKQMFALGAATLGHVESLDVYQFSSEIAKARLSLFQKQADITKKHRGDANIRYAWVPAKKEVLSAVMMHGLGVGGAFIKKSMYGVGVHAANCPYFSARYCDIDDNGVRHMVLCRVIMGNMEPLRGDNTQYFTGGEEYDNGVDDVESPKHYLIWNMNMNTHIYPEFVVSFKLSIPNAEGNILPTTQSRHESSGLTLEGPKGSPSNEPGRVSNGGSGSEKNSSSSRRPRSPIMPFPLLFKAISSKIARKDMDLIIAGYQELREKKVSRKEFYKTLSMIVGDDDLLISTITGLQRSLG
Consider B1, for which the binding result is recorded as “binds”.
